According to patent publication US20210277118A1 (Daiichi Sankyo, published 2021):
Results are given in words; binding and its absence hold for the method and conditions named. Some results given as binding are weak or reduced against the parent protein; the word gives no strength. For some assays here: Tags and fused reporters may be left off the sequences shown.

Chains of the proteins cited; added tags and fusions are not shown. Residues count along the entry.
UniProt Q95LI5, residues 22-198: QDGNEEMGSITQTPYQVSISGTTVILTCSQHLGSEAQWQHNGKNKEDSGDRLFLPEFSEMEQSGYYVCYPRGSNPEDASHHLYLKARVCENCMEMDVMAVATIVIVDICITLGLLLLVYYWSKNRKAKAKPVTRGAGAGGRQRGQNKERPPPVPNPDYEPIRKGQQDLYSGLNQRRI
UniProt P07766, residues 23-207: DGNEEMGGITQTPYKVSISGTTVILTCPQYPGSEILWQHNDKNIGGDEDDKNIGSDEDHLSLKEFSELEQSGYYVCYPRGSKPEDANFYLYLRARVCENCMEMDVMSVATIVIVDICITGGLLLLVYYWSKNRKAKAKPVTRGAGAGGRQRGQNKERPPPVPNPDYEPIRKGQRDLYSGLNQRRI

Key:
[1] = biological target: cynomolgus monkey CD3 expressed on T cells (cynomolgus pan T cells/PBMC, HSC-F cell line) (cynomolgus monkey) (UniProt Q95LI5); test: flow cytometry on cynomolgus T cells
[2] = biological target: human CD3 expressed on T cells (Jurkat cells, human pan T cells/PBMC) (human) (UniProt P07766); test: cell ELISA on CD3+ Jurkat cells, HRP anti-human IgG Fc secondary, A 450 nm
[3] = biological target: human CD3 expressed on T cells (Jurkat cells, human pan T cells/PBMC) (human) (UniProt P07766); test: flow cytometry on human T cells
[4] = biological target: human CD3 expressed on T cells (Jurkat cells, human pan T cells/PBMC) (human) (UniProt P07766); test: flow cytometry on human T cells gated CD4+, detection with anti-IgG-Fc, geo MFI
[5] = biological target: human CD3 expressed on T cells (Jurkat cells, human pan T cells/PBMC) (human) (UniProt P07766); test: cell ELISA on CD3+ Jurkat cells
[6] = biological target: cynomolgus monkey CD3 expressed on T cells (cynomolgus pan T cells/PBMC, HSC-F cell line) (cynomolgus monkey) (UniProt Q95LI5); test: flow cytometry on cynomolgus pan T cells gated CD4+, detection with anti-IgG-Fc, geo MFI
[7] = biological target: cynomolgus monkey CD3 expressed on T cells (cynomolgus pan T cells/PBMC, HSC-F cell line) (cynomolgus monkey) (UniProt Q95LI5); test: flow cytometry on cynomolgus T cell line HSC-F, hybridoma supernatant

Row | Binder | binding [1] | binding [2] | binding [3] | binding [4] | binding [5] | binding [6] | binding [7]
1 | variant 21827, monovalent anti-CD3 scFv-heterodimeric Fc (VL hC3E-1_1L1d, VH hC3E-1(N53S_D102E)) (Fc fusion, scFv order VH-(GGGGS)3-VL on Fc chain A; chain B is Fc only; also called v21827; not shown: Fc-only chain B is also left out) scFv: EVQLVESGGGLVQPGGSLRLSCAASGVTFNYYGMSWIRQAPGKGLEWVASITSSGGRIYYPDSVKGRFTISRENTQKTLYLQMNSLRAEDTAVYYCTLDGREGWVAYWGQGTLVTVSSGGGGSGGGGSGGGGSQVVLTQPPSASGTPGQRVTISCKRNTGNIGSNYVNWYQQLPGTAPKLLIYRDDKRPDGVPDRFSGSKSGTSASLAISGLQSEDEADYYCQSYSSGFIFGGGTKLTVL | binds | – | – | – | – | – | –
2 | variant 21829, monovalent anti-CD3 scFv-heterodimeric Fc (VL hC3E-1_1L1d, VH hC3E-1(N53R)) (Fc fusion, scFv order VH-(GGGGS)3-VL on Fc chain A; chain B is Fc only; also called v21829; not shown: Fc-only chain B is also left out) scFv: EVQLVESGGGLVQPGGSLRLSCAASGVTFNYYGMSWIRQAPGKGLEWVASITRSGGRIYYPDSVKGRFTISRENTQKTLYLQMNSLRAEDTAVYYCTLDGRDGWVAYWGQGTLVTVSSGGGGSGGGGSGGGGSQVVLTQPPSASGTPGQRVTISCKRNTGNIGSNYVNWYQQLPGTAPKLLIYRDDKRPDGVPDRFSGSKSGTSASLAISGLQSEDEADYYCQSYSSGFIFGGGTKLTVL | binds | binds | binds | binds | binds | binds | –
3 | variant 21831, monovalent anti-CD3 scFv-heterodimeric Fc (VL hC3E-1_1L1d, VH hC3E-1(N53S)) (Fc fusion, scFv order VH-(GGGGS)3-VL on Fc chain A; chain B is Fc only; also called v21831; not shown: Fc-only chain B is also left out) scFv: EVQLVESGGGLVQPGGSLRLSCAASGVTFNYYGMSWIRQAPGKGLEWVASITSSGGRIYYPDSVKGRFTISRENTQKTLYLQMNSLRAEDTAVYYCTLDGRDGWVAYWGQGTLVTVSSGGGGSGGGGSGGGGSQVVLTQPPSASGTPGQRVTISCKRNTGNIGSNYVNWYQQLPGTAPKLLIYRDDKRPDGVPDRFSGSKSGTSASLAISGLQSEDEADYYCQSYSSGFIFGGGTKLTVL | binds | binds | binds | binds | binds | – | –
4 | variant 18346, monovalent anti-CD3 scFv-heterodimeric Fc (VL hC3E-1 wildtype, VH hC3E-1 wildtype) (Fc fusion, scFv order VH-(GGGGS)3-VL on Fc chain A; chain B is Fc only; also called v18346; parental construct v18346; not shown: Fc-only chain B is also left out) scFv: EVQLVESGGGLVQPGGSLRLSCAASGVTFNYYGMSWIRQAPGKGLEWVASITNSGGRIYYPDSVKGRFTISRENTQKTLYLQMNSLRAEDTAVYYCTLDGRDGWVAYWGQGTLVTVSSGGGGSGGGGSGGGGSNFMLTQPHSVSESPGKTVTISCKRNTGNIGSNYVNWYQQHEGSSPTTIIYRDDKRPDGVSDRFSGSIDRSSKSASLTISNLKTEDEADYFCQSYSSGFIFGGGTKLTVL | – | – | – | binds | binds | binds | –
5 | variant 18596, monovalent anti-CD3 scFv-heterodimeric Fc (VL hC3E-1, VH hC3E-1a D102E) (Fc fusion, not shown: a dimerising Fc or GST; small tags and cut ends, scFv order VH-(GGGGS)3-VL on Fc chain A; chain B is Fc only; also called v18596) scFv: EVQLVESGGGLVQPGGSLRLSCAASGVTFNYYGMSWIRQAPGKGLEWVASITNSGGRIYYPDSVKGRFTISRENTQKTLYLQMNSLRAEDTAVYYCTLDGREGWVAYWGQGTLVTVSSGGGGSGGGGSGGGGSNFMLTQPHSVSESPGKTVTISCKRNTGNIGSNYVNWYQQHEGSSPTTIIYRDDKRPDGVSDRFSGSIDRSSKSASLTISNLKTEDEADYFCQSYSSGFIFGGGTKLTVL | binds | – | binds | – | binds | – | –
6 | variant 21826, monovalent anti-CD3 scFv-heterodimeric Fc (VL hC3E-1 (D52N), VH hC3E-1(N53R_D102E)) (Fc fusion, scFv order VH-(GGGGS)3-VL on Fc chain A; chain B is Fc only; also called v21826; not shown: Fc-only chain B is also left out) scFv: EVQLVESGGGLVQPGGSLRLSCAASGVTFNYYGMSWIRQAPGKGLEWVASITRSGGRIYYPDSVKGRFTISRENTQKTLYLQMNSLRAEDTAVYYCTLDGREGWVAYWGQGTLVTVSSGGGGSGGGGSGGGGSNFMLTQPHSVSESPGKTVTISCKRNTGNIGSNYVNWYQQHEGSSPTTIIYRNDKRPDGVSDRFSGSIDRSSKSASLTISNLKTEDEADYFCQSYSSGFIFGGGTKLTVL | binds | binds | binds | – | – | – | –
7 | variant 21828, monovalent anti-CD3 scFv-heterodimeric Fc (VL hC3E-1 (D52N), VH hC3E-1(N53S_D102E)) (Fc fusion, scFv order VH-(GGGGS)3-VL on Fc chain A; chain B is Fc only; also called v21828; not shown: Fc-only chain B is also left out) scFv: EVQLVESGGGLVQPGGSLRLSCAASGVTFNYYGMSWIRQAPGKGLEWVASITSSGGRIYYPDSVKGRFTISRENTQKTLYLQMNSLRAEDTAVYYCTLDGREGWVAYWGQGTLVTVSSGGGGSGGGGSGGGGSNFMLTQPHSVSESPGKTVTISCKRNTGNIGSNYVNWYQQHEGSSPTTIIYRNDKRPDGVSDRFSGSIDRSSKSASLTISNLKTEDEADYFCQSYSSGFIFGGGTKLTVL | binds | – | – | – | – | – | –
8 | rat anti-CD3 monoclonal antibody C3-147 (antibody, rat IgG2b, V domains shown, Rat IgG2b with lambda chains (printed 'X chains'); tested as hybridoma culture supernatant) VH: EVQLVESGGGLVQPGRALKLSCVVSGVTFNYYGMSWIRQAPGKGLEWVASITNSGGRIYYPDSVKGRFTISRENTQKTLYLQMNSLRSEDTATYYCTLDGRDGWVAYWGQGTLVTVSS VL: QFVLTQPNSVSTNLGTTVELSCKRNTGNIGSNYVNWYQQHEGRSPTTIIYRDDKRPDGVSDRFSGSIDRSSKSALLTINNVQTEDEADYFCQSYSSGFIFGGGTKLTVL | – | – | – | – | – | – | binds
